Several values for one entry are separate records, joined by “and”; a condition that tells them apart may be missing. Equal values may be shown once. Screen size: about 390,000 compounds; about 4,000 (1%) were called active. Inconclusive means that the source gave no clear call. Such entries were picked first, then a sample of the others. Calls follow the shape of the dose curve; as a rule, active = well fitted inhibition curve with a large enough effect; inconclusive = small, poorly fitted or top-dose-only effect, or another doubt; inactive = no such curve, though single readings can be large or run the other way. A potency beside an inconclusive call is a rough fit, not a confirmed value. The source holds several records for some structures; these can differ, active in one and inactive in another.
What follows are compounds tested against DNA polymerase iota (Homo sapiens) (UniProt Q9UNA4) (assay: qHTS for Inhibitors of Polymerase Iota). Settings: Pol iota fluorescent replication assay, 10 min; series mostly up to 115 µM.
Procedure, shortened: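 Fluorescent replication assay read twice, at 0 min and 10 min after adding 50 nM (final) substrate. Enzyme (10 nM) and compounds were first incubated 15 min at room temperature; enzyme-free buffer wells were negative controls.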
Potency is read from the fitted curve at half-maximal effect.

Chains of the proteins cited; added tags and fusions are not shown. Lines headed by an entry give the natural chain unless they say otherwise; changes in a name come on top.
UniProt Q9UNA4: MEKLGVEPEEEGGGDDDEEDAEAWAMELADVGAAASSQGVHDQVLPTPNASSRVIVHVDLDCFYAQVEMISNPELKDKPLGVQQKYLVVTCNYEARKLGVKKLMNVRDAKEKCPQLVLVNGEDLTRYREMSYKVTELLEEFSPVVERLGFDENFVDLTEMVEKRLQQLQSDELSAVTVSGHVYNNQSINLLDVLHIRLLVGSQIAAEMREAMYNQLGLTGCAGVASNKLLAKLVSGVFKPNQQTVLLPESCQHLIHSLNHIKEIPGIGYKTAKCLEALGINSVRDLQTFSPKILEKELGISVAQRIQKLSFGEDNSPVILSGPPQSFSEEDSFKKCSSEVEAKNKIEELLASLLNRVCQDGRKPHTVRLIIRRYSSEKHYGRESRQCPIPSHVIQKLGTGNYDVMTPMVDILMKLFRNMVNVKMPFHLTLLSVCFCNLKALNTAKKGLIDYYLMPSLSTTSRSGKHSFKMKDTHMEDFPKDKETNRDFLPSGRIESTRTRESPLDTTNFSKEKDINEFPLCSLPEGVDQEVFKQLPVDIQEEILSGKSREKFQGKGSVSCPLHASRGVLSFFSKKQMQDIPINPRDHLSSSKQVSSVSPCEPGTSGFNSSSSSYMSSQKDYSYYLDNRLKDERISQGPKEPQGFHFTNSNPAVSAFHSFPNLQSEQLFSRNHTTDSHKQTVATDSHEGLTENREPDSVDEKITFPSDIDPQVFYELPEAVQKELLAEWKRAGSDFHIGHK

Potency, active:
O=C(N/N=C/C=C/c1ccco1)c1cccs1 22.4 µM, Cc1nn(-c2ccccc2)c(C)c1-c1cc(C(=O)N/N=C/c2ccc(O)cc2)[nH]n1 20 µM

Potency, inactive and 50.1 µM (active):
Cc1cccc(N2CCN(C(=O)c3noc4c3COc3ccc(C)cc3-4)CC2C)c1 (stereo unspecified)

Potency, inconclusive:
Cc1ccc(C)n1-c1nnc(N2CCCC(C(=O)Nc3ccccc3Br)C2)s1 (stereo unspecified) 89.1 µM [inhibitor, single point], Cc1ccc(C(=O)c2c3ccc(N)cc3nn2CCC(N)=O)cc1 25.1 µM [inhibitor, partial curve, poor fit], CN(C)N=Nc1ccc2nc[nH]c2c1 20 µM [inhibitor, partial curve], O=C(NCc1ccco1)c1cccc(S(=O)(=O)N2CCCCC2)c1 17.8 µM [inhibitor, full curve, poor fit], COc1cccc(NC(=O)Cn2cc(C(=O)c3ccc(C)cc3)c(=O)c3cc(OC)ccc32)c1 39.8 µM [inhibitor, single point], O=c1[nH]c(/C=C\c2cccc(O)c2)nc(O)c1[N+](=O)[O-] 20 µM [inhibitor, full curve], COc1ccccc1NC(=O)c1sc2ncn(CC(=O)Nc3ccccc3)c(=O)c2c1C 17.8 µM [inhibitor, full curve, poor fit], CC1CCCN(c2nc3ccccc3nc2C(C#N)S(=O)(=O)c2cccs2)C1 (stereo unspecified) 39.8 µM [inhibitor, single point], Cc1cccc(CN(CC(=O)N/N=C/c2ccco2)S(=O)(=O)c2ccc(Cl)cc2)c1 14.1 µM [inhibitor, full curve], O=C(Nc1cc(Cl)ccc1Cl)c1cc([N+](=O)[O-])cc(Br)c1O 39.8 µM [inhibitor, single point], Cc1ccc(C(=O)CSc2nnc(Cn3nnc4ccccc43)n2C)cc1 79.4 µM [inhibitor, single point], CN1CCN(c2ncc3c(n2)CCN(Cc2ccc(Br)s2)C3)CC1 89.1 µM [inhibitor, single point], CC(C)NC(=O)c1onc(CSc2cccc3ccccc23)c1C(=O)O 50.1 µM [inhibitor, partial curve, poor fit], CCOc1ccc(NC(=O)COc2ccc(S(=O)(=O)NC3CCCCC3)cc2)cc1 89.1 µM [inhibitor, single point], Cc1cccc(NC(=O)NCc2ccc3[nH]c(C)cc3c2)c1 0.631 µM [inhibitor, full curve, poor fit], Cc1ccc(CN2C(=O)[C@@H]3Cc4c([nH]c5ccccc45)C(C)(C)N3C2=O)cc1 7.08 µM [inhibitor, partial curve, poor fit], Cc1cc(-c2cccnc2)c(C#N)c(SCc2cccc(F)c2)n1 31.6 µM [inhibitor, single point], CC1CCc2nc3ccc(S(=O)(=O)N4CCC(C(=O)NC5CCCC5)CC4)cc3c(C(=O)O)c2C1 (stereo unspecified) 14.1 µM [inhibitor, full curve, poor fit], CCn1c(SCC(=O)N/N=C/c2ccccc2OCC(=O)O)nnc1-c1ccc(OC)cc1 70.8 µM [inhibitor, partial curve, poor fit], COc1cc(C)c(C(=O)Oc2cc(C)c(C(=O)O)c(O)c2C)c(O)c1C 50.1 µM [inhibitor, partial curve, poor fit], O=C(COC(=O)c1cccc(S(=O)(=O)N2CCCCCC2)c1)Nc1ccccc1 50.1 µM [inhibitor, partial curve, poor fit], COCCn1c(=NC(=O)c2ccc3c(c2)OCCO3)sc2cc(S(N)(=O)=O)ccc21 28.2 µM [inhibitor, full curve, poor fit], CC(C)(C)NC(=O)C(c1ccncc1)N(C(=O)Cn1nnc(-c2cccs2)n1)C1CCCCC1 (stereo unspecified) 39.8 µM [inhibitor, single point], Cc1ccc(CN2C(=O)c3ccccc3CC2(C)C(=O)NC2CCCCC2)cc1 (stereo unspecified) 89.1 µM [inhibitor, single point], CCN(CC)CCn1c(=S)[nH]c2ccc(Cl)cc2c1=O 112 µM [inhibitor, partial curve, poor fit], CC(C)(C)c1ccc(S(=O)(=O)NCCc2ccncc2)cc1 39.8 µM [inhibitor, single point], COC(=O)c1c(-c2cccs2)csc1NC(=O)COc1ccc(C)cc1 31.6 µM [inhibitor, partial curve, poor fit], CCOC(=O)C1=C(c2ccccc2)NC(=O)N(C(C)=O)C1c1cccc([N+](=O)[O-])c1 (stereo unspecified) 89.1 µM [inhibitor, single point], Cc1onc(-c2ccccc2)c1C(=O)Nc1sccc1C#N 8.91 µM [inhibitor, partial curve], COc1ccccc1/C=C/C=N/NC(=O)c1cc(-c2ccco2)[nH]n1 31.6 µM [inhibitor, single point], NC(=O)C1CCN(C(=O)C(Cc2ccccc2)NC(=O)c2ccccc2)CC1 (stereo unspecified) 39.8 µM [inhibitor, single point], O=C(CSc1ccc(-c2ccco2)nn1)NC1CCCCC1 28.2 µM [inhibitor, full curve], CCC(CC)C1C(C#N)=C(N)SC(N)=C1C#N 11.2 µM [inhibitor, partial curve, poor fit], Cc1cc(C)c(C(=O)c2ccc(C(=O)N(C(C)C)C(C)C)cc2)c(C)c1 63.1 µM [inhibitor, partial curve, poor fit], Cc1cc2cc(CNS(=O)(=O)c3ccc4ccccc4c3)ccc2n1C 70.8 µM [inhibitor, single point], O=C(CNC(=O)c1ccc(Br)cc1)NCC(=O)OCc1ccc(Cl)cc1 79.4 µM [inhibitor, single point], Cc1cc(C)c(NN=c2c(=O)c3ccccc3c2=O)c(C)c1 89.1 µM [inhibitor, single point], O=c1c2ccccc2c(C=Nc2cccc(O)c2)c(O)n1-c1ccc2c(c1)OCO2 15.8 µM [inhibitor, partial curve, poor fit], O=C(CC(=O)c1cccc([N+](=O)[O-])c1)Nc1ccccc1Cl 79.4 µM [inhibitor, partial curve], COCC(C)NC(=O)c1cccc(Cl)c1 (stereo unspecified) 11.2 µM [inhibitor, single point], COc1cc([N+](=O)[O-])cc(/C=N\NC(=O)C2COc3ccccc3O2)c1O (stereo unspecified) 22.4 µM [inhibitor, single point], O=C(Nc1ccccc1)OCCOc1ccccc1 89.1 µM [inhibitor, partial curve, poor fit], Cc1cc(-c2[nH]nc3c2C(c2ccsc2)C(C#N)=C(N)O3)c(C)s1 (stereo unspecified) 14.1 µM [inhibitor, full curve, poor fit], O=C(CSc1nc(-c2ccc(F)cc2)[nH]c1-c1ccc(F)cc1)Nc1ccc2c(c1)OCO2 89.1 µM [inhibitor, single point]

Potency, inactive:
CCCN(CCC)C(=O)Cn1c(=O)n(CCCCCC(=O)NCc2ccc3c(c2)OCO3)c(=O)c2sccc21, CC(C)(C)S(=O)N1Cc2cn(Cc3ccccc3)c(=O)cc2[C@H]1CCO (stereo partly specified), COc1ccc(NC(=O)c2oc3ccccc3c2NC(=O)Cc2coc3c(C)c(C)ccc23)cc1, CCN(CC)CCNC(=O)c1c2c(nc3ccccc13)C(=O)N(C1CCCCC1)C2, COc1ccc(NC(=O)/C(=C\c2ccc(OC)c(OC)c2)NC(=O)c2ccco2)cc1, CN1CCN(Cc2cc(COCc3ccccc3)c3cccnc3c2O)CC1, CCOC(=O)c1c(Nc2ccc(OC)cc2)nnc(-c2ccccc2)c1-c1ccccc1, CC1(C(=O)NCCCN2CCOCC2)Oc2cccnc2NC1=O (stereo unspecified), Cn1c(=O)c2sccc2n2c(CCC(=O)NCc3ccc(Cl)cc3)nnc12, Cc1cccc(-c2nc3scc(CCNS(=O)(=O)c4ccc5c(c4)OCCO5)n3n2)c1, Cc1cccc2c1-c1sc(C(=O)N(C)c3cccc(Cl)c3)cc1CO2, CN(CC(=O)O)c1ccc(/C=C/c2ccnc3ccccc23)cc1, COc1cccc(CNc2ccc3[nH]c(=O)[nH]c3c2)c1OCc1ccccc1, C=CCOc1ccc(/C=C(\C#N)C(=O)Nc2ccccn2)cc1, CC(C)c1cc(C(=O)OCC(=O)N2CCN(C(=O)c3ccco3)CC2)c(O)c(C(C)C)c1, CCN(CC)CCCNC(=O)Cc1csc2nc(-c3ccc(Cl)cc3)cn12, CCOC(=O)c1cnc2c(C)c(Cl)ccc2c1Nc1ccc(N2CCOCC2)cc1, COc1ccccc1-c1noc(-c2ccc(NCC3CCCO3)c([N+](=O)[O-])c2)n1 (stereo unspecified), O=S(=O)(c1cccc2ccccc12)N1CCN(c2ccc(Cl)c(Cl)c2)CC1

From PubChem BioAssay AID588590 (National Center for Advancing Translational Sciences (NCATS), 2011)
